PubChem BioAssay AID1259308 – NCATS | 2017
Here is an unselected part of about 59,000 reagents. Of all reagents, about 1,510 (2.6%) are marked active. 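Calls use total luciferase alone and ignore viability, so some active siRNAs may act by altering cell number.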 A number with no mark means an inactive call. Reagents against one gene are numbered here. Not all columns of the deposit are shown.

- Screen: 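Knock-downs that increase output of a recombinant reporter protein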 (primary screen)
- Cells: human HEK293 embryonic kidney cells stably expressing firefly luciferase (HEK-CMV-Luc2-Hygro)
- Reagent: single siRNA against human genes, 0.8 pmol siRNA per well
- Timing: 72 h
- Measured: 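Luciferase light (ONE-Glo) measured on one replicate plate set and viability (CellTiter-Glo) on the other, scaled to a negative control siRNA, with robust z-scores and luciferase per cell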
- Scale: total luciferase, z-score: higher = more reporter protein produced
- Hit rule: 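Active when the median/MAD z-score for overall luciferase is greater than 3; a gene was taken forward for validation with new siRNAs if at least two of its three siRNAs passed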
- Calls: active = raised luciferase; inactive = no rise

For KIAA0513 (GeneID 9764) #1, what does the deposit list?
total luciferase, z-score: 0.597

Which result is listed for KIAA0513 (GeneID 9764) #2?
total luciferase, z-score: 0.137

What did the screen give for KIAA0513 (GeneID 9764) #3?
total luciferase, z-score: -0.449

With MED31 (GeneID 51003) #1, what was measured?
total luciferase, z-score: 0.304

With MED31 (GeneID 51003) #2, what does the deposit list?
total luciferase, z-score: -1.53

With MED31 (GeneID 51003) #3, what was measured?
total luciferase, z-score: -1.28

Look-ups from the entries so far.
Value for MED31 (GeneID 51003) #3 in “total luciferase, z-score”: -1.28
KIAA0513 (GeneID 9764) #3, total luciferase, z-score: -0.449

Additional reagents follow.
What is on record for SDE2 (GeneID 163859) #1?
total luciferase, z-score: 1.43

What is on record for SDE2 (GeneID 163859) #2?
total luciferase, z-score: -0.531

With SDE2 (GeneID 163859) #3, how do the results read?
total luciferase, z-score: 0.574

What did the screen give for TBC1D8B (GeneID 54885) #1?
total luciferase, z-score: 1.33

With TBC1D8B (GeneID 54885) #2, what was measured?
total luciferase, z-score: -0.931

What is on record for TBC1D8B (GeneID 54885) #3?
total luciferase, z-score: -0.728
